{"source": "patent EP4122466A1", "about": "(priority 2021, dated 2023)", "origin": "cited, not measured here", "test_system": "SARS-CoV-2", "settings": "cited from earlier work", "note": "For at least one compound, name, drawing or mass did not settle the structure."}
{"smiles": "Cc1nc(Nc2ncc(C(=O)Nc3c(C)cccc3Cl)s2)cc(N2CCN(CCO)CC2)n1", "note": "[dasatinib]", "values": [{"measurement": "in vitro activity against SARS-CoV-2", "result": "do not show antiviral efficacy"}]}
